Laboratory results: patent US20240075064A1, “COMPOSITIONS AND METHODS FOR EXPANSION OF T CELLS AND TUMOR INFILTRATING LYMPHOCYTES” (OBSIDIAN THERAPEUTICS, INC., priority 2021, published 2024)
No constants are given. Whether binding was seen depends on the method and setting. Some binding calls cover weakened binding; strength is not graded here.

The chains behind the UniProt entries cited, without tags or fusion partners. Residues count along the entry.
UniProt Q13261, residues 31-205: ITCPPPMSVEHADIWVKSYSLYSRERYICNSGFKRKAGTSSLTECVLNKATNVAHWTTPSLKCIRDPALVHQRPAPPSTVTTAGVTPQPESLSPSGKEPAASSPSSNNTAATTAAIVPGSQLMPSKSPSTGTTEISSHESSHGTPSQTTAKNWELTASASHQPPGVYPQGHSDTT

Molecular target: constitutive mbIL15 (OT-IL15-292) on transduced TILs (human)
Test: flow cytometry; biotinylated IL15RaFc plus streptavidin-BV421 on transduced TILs, co-stained with anti-IL15-DyL650

binding: binds
Substance: biotinylated IL15RaFc (ACROBiosystems) (from UniProt Q13261 31-205) (Fc fusion)
